No constants are given. Whether binding was seen depends on the method and setting. A result given as binding can be weak or reduced; the word gives no strength. For some assays here: Binding seen in cells or lysates may run through a third protein.

Sequences of proteins named here, by UniProt entry; tags and fusion partners are left off. A change or cut given only in a name is not applied to a line headed by its entry.
UniProt F4J8D3: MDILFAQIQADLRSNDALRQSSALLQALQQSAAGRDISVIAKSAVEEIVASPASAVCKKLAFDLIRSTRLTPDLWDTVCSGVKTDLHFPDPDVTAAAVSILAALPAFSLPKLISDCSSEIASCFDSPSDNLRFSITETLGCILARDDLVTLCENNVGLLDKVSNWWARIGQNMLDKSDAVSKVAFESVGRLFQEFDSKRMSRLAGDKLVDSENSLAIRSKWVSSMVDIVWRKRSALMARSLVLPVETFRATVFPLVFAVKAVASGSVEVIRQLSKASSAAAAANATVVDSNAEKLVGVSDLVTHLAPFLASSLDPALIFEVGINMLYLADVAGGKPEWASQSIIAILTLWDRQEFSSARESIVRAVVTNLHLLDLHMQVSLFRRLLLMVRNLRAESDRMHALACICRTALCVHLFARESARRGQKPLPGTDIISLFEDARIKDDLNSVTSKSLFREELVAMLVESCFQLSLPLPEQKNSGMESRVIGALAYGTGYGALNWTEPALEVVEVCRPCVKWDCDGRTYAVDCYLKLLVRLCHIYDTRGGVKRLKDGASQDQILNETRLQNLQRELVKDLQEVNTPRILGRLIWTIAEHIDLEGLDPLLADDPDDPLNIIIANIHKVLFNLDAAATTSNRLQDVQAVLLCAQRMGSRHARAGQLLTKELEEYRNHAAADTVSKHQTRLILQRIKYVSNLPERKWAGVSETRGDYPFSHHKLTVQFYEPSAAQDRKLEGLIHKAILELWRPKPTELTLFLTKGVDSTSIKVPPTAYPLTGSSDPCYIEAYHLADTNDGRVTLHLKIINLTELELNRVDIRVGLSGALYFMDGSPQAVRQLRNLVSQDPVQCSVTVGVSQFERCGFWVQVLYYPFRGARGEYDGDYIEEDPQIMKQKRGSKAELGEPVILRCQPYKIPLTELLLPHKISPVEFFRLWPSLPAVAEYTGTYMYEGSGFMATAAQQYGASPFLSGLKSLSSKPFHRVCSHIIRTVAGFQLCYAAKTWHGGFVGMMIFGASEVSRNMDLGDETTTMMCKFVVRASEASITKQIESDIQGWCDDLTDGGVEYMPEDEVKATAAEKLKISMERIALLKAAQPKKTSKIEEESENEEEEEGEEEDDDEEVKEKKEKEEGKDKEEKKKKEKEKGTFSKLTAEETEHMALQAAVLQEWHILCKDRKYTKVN
UniProt F4KIH8: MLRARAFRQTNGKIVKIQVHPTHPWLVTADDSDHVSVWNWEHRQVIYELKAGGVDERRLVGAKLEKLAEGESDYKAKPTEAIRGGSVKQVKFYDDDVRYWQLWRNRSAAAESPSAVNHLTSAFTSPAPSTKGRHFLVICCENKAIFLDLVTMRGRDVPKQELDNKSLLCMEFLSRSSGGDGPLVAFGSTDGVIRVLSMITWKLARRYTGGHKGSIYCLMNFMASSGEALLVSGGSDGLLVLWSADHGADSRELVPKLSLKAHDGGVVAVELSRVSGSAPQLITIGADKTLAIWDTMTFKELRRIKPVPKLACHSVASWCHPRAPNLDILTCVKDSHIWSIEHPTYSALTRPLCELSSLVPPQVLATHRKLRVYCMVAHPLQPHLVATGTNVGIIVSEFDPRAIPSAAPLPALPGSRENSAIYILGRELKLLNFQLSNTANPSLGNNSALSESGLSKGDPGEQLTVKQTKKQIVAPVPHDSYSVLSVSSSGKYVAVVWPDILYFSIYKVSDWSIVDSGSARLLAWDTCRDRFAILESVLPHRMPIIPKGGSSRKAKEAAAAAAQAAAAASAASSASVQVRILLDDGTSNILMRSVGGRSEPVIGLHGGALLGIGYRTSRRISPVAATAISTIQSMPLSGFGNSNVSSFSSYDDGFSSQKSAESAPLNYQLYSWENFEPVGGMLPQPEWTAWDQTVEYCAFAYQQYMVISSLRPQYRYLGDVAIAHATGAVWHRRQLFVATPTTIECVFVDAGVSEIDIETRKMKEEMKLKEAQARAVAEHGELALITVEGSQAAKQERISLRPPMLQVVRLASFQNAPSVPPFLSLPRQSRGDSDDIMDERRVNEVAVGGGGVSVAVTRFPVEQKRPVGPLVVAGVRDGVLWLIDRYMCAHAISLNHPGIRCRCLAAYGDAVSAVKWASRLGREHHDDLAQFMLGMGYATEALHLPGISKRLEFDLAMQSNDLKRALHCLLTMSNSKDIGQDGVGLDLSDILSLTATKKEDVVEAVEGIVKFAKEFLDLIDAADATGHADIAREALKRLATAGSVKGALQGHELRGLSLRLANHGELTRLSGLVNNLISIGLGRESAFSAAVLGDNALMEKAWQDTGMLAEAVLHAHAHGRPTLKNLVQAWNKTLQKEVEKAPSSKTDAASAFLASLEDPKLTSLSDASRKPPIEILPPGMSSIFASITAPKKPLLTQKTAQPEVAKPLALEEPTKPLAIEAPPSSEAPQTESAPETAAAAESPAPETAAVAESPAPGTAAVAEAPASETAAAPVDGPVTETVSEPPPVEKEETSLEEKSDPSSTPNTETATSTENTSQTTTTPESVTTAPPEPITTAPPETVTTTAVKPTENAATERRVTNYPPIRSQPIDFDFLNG

This is an account of results in doi:10.1101/2020.08.13.249276.

For assay [1], the target named is TML-GS (Arabidopsis) (UniProt Q9FKM4). The assay is described as follows: cross-linking.
The target in assay [2] is TPLATE-GFP (full-length) (Arabidopsis) (UniProt F4J8D3). The assay is described as follows: co-IP.

In the case of AtEH1/Pan1 (from UniProt F4HUN9), the binding result in assay [1] is on record as “binds”.

Take TWD40-2 (from UniProt F4KIH8): the binding entry in assay [2] is “binds”.
